Measurements reported in PubChem BioAssay AID504808 (Drosophila RNAi Screening Center, 2011).
Screen: 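Chromatin factors that keep E2F targets switched off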 (primary screen). Cells: Drosophila S2 cells. Reagent: long dsRNA against Drosophila genes. Read-out: 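Firefly luciferase driven by E2F sites, normalised to Renilla luciferase on the same minimal promoter, measured by plate reader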. Direction: E2F firefly: higher = more E2F reporter activity; Renilla normaliser: higher = more normaliser reporter signal. Active means: 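a knock-down counted as active when the firefly/Renilla E2F signal rose above 50%, a threshold chosen arbitrarily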.
In all, the deposit lists about 21,000 reagents; shown is an unselected part of those with a known target gene and a result. Over the whole deposit, 18 (0.084%) were called active. 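Raw counts without plate normalisation, one of two replicates; the ratio scores behind the calls were not deposited.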 Unmarked entries are inactive. The numbers tell different reagents against one gene apart. A plus sign joins genes that one reagent is predicted to hit. Not given: the amount of reagent, the time to read-out.

gene	reagent	E2F firefly, rep 1	Renilla normaliser, rep 1
CG13908 (retired record)	1	1.07e5	4203
Lip1 (Lipase 1)	1	1.49e5	5575
CG9467	1	70592	3932
Utx (Utx histone demethylase)	1	1.66e5	5043
CG7988	1	1.47e5	7338
CG2983	1	1.57e5	5295
alpha-Est9 (alpha-Esterase-9)	1	1.41e5	5755
DCTN5-p25 (Dynactin 5, p25 subunit)	1	99576	4751
shv (shriveled)	1	1.72e5	6188
CG8679	1	99566	4367
sip3 (septin interacting protein 3)	1	1781	972
Tsp29Fb (Tetraspanin 29Fb)	1	1.30e5	4874
CG18635	1	51344	3463
CG11722	1	1.11e5	7680
CG34155	1	80048	2494
CG11436	1	1653	844
Cyp4d1 (Cytochrome P450 4d1)	1	87265	2529
Cyp4d1 (Cytochrome P450 4d1)	2	1.07e5	5138
Cdc14 (Cell division cycle 14)	1	1.58e5	4533
roh (reduction of Rh1)	1	1.39e5	5756
Prosalpha4T1 (Proteasome alpha4 subunit, Testis-specific 1)	1	1.17e5	7455
CG34244	1	1.47e5	2527
Obp56i (Odorant-binding protein 56i)	1	1.58e5	5806
CG8012	1	97042	4125
Rpt5 (Regulatory particle triple-A ATPase 5)	1	53353	3510
ND-SGDH (NADH dehydrogenase (ubiquinone) SGDH subunit)	1	1.21e5	6471
CG17350	1	97863	3967
Efr (ER GDP-fucose transporter)	1	1.12e5	5364
Bulli	1	1.05e5	3993
pins (partner of inscuteable)	1	74410	5682
Sur-8	1	1.01e5	6274
RpLP2 (Ribosomal protein LP2)	1	80007	4594
dnr1 (defense repressor 1)	1	1.40e5	5351
dnr1 (defense repressor 1)	2	1.09e5	4841
CG12159	1	1.41e5	4463
Spase25 (Spase 25-subunit)	1	8125	784
CG33203	1	1.40e5	6368
CG33203	2	1.16e5	6426
CG33203	3	1.10e5	5801
CG15533	1	1.32e5	6606
Argl + CG9515	1	80898	3459
Argl + CG9515	2	1.47e5	4946
CG16896	1	89293	3521
CG3277	1	1.54e5	6450
CG7565	1	86110	3984
Or98b (Odorant receptor 98b)	1	1.18e5	5770
CG14598	1	1.31e5	6477
Opa1 (Optic atrophy 1)	1	167	30
CG18585	1	98047	4028
Epg5 (ectopic P-granules autophagy protein 5)	1	1.42e5	7328
CR30068 (retired record)	1	1.38e5	5698
ver (verrocchio)	1	1.27e5	7205
CG1213	1	1.34e5	6252
CG32213 + CG12519 + 825-Oak + 1 more	1	79098	3575
bru2 (bruno 2)	1	1.30e5	5516
bru2 (bruno 2)	2	1.00e5	5647
bru2 (bruno 2)	3	1.17e5	5940
bru2 (bruno 2)	4	1.04e5	5048
bru2 (bruno 2)	5	89927	116
CG12128 + CG1407	1	2835	235
TwdlX (TweedleX)	1	83196	2402
CG6012	1	1.16e5	4431
CG7914	1	1.37e5	4191
HemK1 (HemK methyltransferase 1)	1	1.04e5	4315
apolpp (apolipophorin)	1	2002	816
CG40198	1	70806	6070
Cdep (Chondrocyte-derived ezrin-like domain containing protein)	1	92010	3294
Cdep (Chondrocyte-derived ezrin-like domain containing protein)	2	73200	2981
Cdep (Chondrocyte-derived ezrin-like domain containing protein)	3	1.24e5	6184
ft (fat)	1	97248	3182
CrebA (Cyclic-AMP response element binding protein A)	1	65153	3201
Ctps (CTP synthase)	1	1.15e5	4275
Ctps (CTP synthase)	2	69707	3213
Ctps (CTP synthase)	3	1.51e5	7666
CG42369	1	1.45e5	4770
Vps4 (Vacuolar protein sorting 4)	1	1.42e5	6235
CG8136	1	1.29e5	6556
Su(P) (Suppressor of ref(2)P sterility)	1	1.65e5	7051
CG12299	1	91740	3417
mia (meiosis I arrest)	1	73139	3918
Fad2	1	79408	7159
Alg2 (ALG2, alpha-1,3/1,6-mannosyltransferase)	1	86315	3519
Ctr1A (Copper transporter 1A)	1	1.00e5	5311
Pfdn4 (Prefoldin 4)	1	89113	3672

11 consecutive entries already listed:
gene	reagent	E2F firefly, rep 1	Renilla normaliser, rep 1
CG33203	2	1.16e5	6426
CG33203	3	1.10e5	5801
CG15533	1	1.32e5	6606
Argl + CG9515	1	80898	3459
Argl + CG9515	2	1.47e5	4946
CG16896	1	89293	3521
CG3277	1	1.54e5	6450
CG7565	1	86110	3984
Or98b (Odorant receptor 98b)	1	1.18e5	5770
CG14598	1	1.31e5	6477
Opa1 (Optic atrophy 1)	1	167	30
